Assay results published in patent US20150376252A1.
These are yes or no findings as the source states them, for the method shown. Some entries that bind do so weakly or less than the wild type.

Protein sequences, listed by entry. Tags and fused reporters are not part of them. Residues count along the entry.
UniProt O75581, residues 20-631: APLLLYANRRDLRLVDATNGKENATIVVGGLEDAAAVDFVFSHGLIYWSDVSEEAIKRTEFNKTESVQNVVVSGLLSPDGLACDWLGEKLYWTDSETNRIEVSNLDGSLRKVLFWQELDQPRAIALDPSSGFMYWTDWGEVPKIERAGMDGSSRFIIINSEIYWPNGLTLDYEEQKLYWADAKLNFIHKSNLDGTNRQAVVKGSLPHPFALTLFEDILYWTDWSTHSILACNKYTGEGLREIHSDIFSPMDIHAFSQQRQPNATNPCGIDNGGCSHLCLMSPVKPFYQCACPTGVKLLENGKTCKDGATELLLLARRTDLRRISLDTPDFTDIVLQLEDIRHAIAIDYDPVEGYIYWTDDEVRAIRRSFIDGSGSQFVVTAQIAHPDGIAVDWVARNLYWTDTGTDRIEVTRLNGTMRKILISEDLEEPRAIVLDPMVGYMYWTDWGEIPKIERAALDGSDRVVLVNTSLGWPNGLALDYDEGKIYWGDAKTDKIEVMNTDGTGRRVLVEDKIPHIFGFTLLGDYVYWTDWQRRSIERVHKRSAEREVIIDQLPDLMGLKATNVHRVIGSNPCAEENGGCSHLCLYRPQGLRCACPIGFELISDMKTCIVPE

Key:
[1] = biological target: His8-tagged Lrp6 BP1-2 (Lrp6 extracellular beta-propeller domains 1 and 2) (UniProt O75581); experiment: AlphaScreen (FIG. 13A)
[2] = biological target: His8-tagged Lrp6 BP1-2 (Lrp6 extracellular beta-propeller domains 1 and 2) (UniProt O75581); experiment: AlphaScreen luminescence proximity assay

binding [1]: binds
binding [2]: binds
Binder: GGGGGGCNSIKFCG (N-terminal biotin; disulfide bond between the two cysteines (cyclic)) [biotinylated DKK1 peptide (cyclic, biotin-…)]
